The other results are listed elsewhere or left out.
Legend:
Assay in all cases: log2 fold change, soluble protein after heating vs DMSO (PISA); higher = thermal stabilisation; K562 lysate, 10 uM; active = over 0.2 and 3.5 SD of the protein, either way, in both replicates (recomputed)
[1] = compound: CCCS(=O)(=O)Nc1ccc(F)c(C(=O)c2c[nH]c3ncc(-c4ccc(Cl)cc4)cc23)c1F [vemurafenib]
Summary of the method: (§1)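 K562 pellets were dounce-homogenised in PBS pH 7.4 containing 1 mM MgCl2, and the crude extract, at 1 mg/mL protein, was exposed to 10 μM compound for 30 min. Aliquots were heated for 3 min across 48°C-58°C, pooled, brought to 0.5% NP-40 at 4°C and spun at 21,000xg for 90 min, with the supernatant taken as soluble protein. TMTpro 16plex LC-MS/MS with equalised channel sums quantified that protein. Values are log-two fold changes in thermal stability relative to solvent controls, taken from duplicates.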

The chains behind the UniProt entries cited, without tags or fusion partners. Where a name states a change or a piece, a line headed by the entry shows the natural chain unless it says otherwise.
UniProt O00148, whole entry, looked up: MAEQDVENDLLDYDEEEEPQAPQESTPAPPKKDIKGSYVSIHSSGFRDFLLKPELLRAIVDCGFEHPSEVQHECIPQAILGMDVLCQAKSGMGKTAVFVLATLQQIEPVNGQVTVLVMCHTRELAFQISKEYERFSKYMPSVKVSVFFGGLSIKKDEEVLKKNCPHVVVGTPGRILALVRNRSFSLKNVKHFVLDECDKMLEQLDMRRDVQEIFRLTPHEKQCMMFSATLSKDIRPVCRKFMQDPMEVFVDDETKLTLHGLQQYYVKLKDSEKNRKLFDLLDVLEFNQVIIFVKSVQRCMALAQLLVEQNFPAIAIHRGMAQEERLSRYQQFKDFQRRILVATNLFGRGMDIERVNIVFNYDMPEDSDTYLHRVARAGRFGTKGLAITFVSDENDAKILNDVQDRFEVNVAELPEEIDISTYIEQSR
UniProt Q9UIK4: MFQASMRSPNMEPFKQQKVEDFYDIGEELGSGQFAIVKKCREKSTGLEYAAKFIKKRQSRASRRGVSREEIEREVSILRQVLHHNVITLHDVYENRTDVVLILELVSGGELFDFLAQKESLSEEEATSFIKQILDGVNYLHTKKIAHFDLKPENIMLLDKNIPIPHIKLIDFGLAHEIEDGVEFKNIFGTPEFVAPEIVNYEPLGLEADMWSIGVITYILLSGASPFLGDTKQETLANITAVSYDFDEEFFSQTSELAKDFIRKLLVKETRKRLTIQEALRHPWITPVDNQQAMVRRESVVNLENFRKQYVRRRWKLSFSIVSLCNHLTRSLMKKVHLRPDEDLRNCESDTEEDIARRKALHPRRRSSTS
UniProt P53355: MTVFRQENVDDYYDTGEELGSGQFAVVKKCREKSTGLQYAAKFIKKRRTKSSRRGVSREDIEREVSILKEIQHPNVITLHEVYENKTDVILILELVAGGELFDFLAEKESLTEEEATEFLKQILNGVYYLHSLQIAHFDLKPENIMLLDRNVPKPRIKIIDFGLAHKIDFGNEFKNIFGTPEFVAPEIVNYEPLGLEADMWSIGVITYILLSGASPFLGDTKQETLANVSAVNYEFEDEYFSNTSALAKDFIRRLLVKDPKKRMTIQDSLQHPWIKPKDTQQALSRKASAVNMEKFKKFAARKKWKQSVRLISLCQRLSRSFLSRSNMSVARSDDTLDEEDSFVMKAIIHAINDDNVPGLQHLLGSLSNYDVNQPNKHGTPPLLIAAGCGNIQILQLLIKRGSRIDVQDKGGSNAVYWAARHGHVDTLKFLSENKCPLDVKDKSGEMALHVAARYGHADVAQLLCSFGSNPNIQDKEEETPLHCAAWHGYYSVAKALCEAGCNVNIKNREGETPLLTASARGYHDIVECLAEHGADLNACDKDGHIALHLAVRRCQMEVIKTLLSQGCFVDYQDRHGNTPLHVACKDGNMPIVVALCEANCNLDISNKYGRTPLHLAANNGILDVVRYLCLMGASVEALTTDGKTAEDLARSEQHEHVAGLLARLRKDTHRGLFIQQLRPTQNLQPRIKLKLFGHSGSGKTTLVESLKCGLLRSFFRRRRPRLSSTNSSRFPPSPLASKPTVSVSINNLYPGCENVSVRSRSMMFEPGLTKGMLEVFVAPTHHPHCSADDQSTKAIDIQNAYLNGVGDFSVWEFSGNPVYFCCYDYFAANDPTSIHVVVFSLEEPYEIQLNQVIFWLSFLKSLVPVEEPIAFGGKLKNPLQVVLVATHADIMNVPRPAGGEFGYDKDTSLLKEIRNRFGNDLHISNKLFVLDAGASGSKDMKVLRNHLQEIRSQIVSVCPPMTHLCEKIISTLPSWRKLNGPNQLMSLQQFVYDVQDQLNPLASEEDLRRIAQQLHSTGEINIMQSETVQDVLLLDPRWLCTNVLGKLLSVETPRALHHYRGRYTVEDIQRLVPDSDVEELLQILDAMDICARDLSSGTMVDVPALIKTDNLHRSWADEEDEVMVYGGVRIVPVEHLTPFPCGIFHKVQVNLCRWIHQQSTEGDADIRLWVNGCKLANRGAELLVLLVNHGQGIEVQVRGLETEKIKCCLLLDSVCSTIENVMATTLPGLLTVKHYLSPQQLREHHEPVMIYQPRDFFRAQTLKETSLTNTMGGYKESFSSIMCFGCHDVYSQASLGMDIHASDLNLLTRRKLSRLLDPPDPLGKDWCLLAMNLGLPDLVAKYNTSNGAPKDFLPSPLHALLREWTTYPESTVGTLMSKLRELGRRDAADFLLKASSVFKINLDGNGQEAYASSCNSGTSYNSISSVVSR
UniProt O75140: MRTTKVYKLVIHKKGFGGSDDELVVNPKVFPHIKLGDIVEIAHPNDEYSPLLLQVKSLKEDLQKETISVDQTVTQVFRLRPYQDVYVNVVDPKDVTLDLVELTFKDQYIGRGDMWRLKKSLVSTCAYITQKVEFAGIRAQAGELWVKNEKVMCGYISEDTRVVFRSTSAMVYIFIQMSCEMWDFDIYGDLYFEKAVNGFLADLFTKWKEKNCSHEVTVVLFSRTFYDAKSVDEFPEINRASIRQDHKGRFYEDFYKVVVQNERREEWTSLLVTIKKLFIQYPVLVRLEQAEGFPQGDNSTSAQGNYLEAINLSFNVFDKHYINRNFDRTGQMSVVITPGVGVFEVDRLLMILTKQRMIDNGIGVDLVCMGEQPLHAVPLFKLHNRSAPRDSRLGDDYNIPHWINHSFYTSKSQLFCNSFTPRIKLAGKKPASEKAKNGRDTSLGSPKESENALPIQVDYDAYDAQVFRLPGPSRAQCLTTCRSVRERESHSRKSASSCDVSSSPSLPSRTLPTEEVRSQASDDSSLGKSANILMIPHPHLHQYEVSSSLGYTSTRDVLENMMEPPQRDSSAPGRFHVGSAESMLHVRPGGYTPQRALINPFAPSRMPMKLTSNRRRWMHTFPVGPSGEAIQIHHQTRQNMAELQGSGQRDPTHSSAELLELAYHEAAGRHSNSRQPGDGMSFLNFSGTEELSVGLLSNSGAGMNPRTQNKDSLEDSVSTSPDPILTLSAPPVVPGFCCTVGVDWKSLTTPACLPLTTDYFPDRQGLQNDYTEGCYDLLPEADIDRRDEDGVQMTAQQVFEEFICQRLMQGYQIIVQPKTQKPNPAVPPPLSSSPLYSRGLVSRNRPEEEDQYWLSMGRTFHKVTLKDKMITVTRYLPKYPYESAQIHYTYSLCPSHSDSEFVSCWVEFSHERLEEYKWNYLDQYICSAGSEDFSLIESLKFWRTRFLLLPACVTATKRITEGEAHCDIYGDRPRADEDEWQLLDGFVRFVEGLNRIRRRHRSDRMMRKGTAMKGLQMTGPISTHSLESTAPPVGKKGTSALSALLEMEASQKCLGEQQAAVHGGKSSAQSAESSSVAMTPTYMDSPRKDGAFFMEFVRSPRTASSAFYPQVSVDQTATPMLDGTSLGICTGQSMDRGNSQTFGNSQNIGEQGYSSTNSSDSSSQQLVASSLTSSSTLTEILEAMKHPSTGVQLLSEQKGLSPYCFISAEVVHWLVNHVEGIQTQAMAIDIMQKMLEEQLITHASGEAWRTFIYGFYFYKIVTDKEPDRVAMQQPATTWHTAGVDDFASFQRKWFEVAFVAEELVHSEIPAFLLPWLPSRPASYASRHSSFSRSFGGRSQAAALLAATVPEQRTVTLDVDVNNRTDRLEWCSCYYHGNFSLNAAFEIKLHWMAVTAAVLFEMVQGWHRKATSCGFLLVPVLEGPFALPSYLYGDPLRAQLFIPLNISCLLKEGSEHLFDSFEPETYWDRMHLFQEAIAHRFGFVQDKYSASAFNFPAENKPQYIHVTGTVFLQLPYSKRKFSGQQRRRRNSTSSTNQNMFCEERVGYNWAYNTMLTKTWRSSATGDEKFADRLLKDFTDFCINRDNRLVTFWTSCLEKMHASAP
UniProt Q6ICB0: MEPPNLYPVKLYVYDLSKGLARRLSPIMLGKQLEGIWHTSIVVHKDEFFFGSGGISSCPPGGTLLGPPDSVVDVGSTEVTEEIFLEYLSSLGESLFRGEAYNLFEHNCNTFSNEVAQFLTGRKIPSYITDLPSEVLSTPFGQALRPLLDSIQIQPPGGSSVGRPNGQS
UniProt Q9BUQ8: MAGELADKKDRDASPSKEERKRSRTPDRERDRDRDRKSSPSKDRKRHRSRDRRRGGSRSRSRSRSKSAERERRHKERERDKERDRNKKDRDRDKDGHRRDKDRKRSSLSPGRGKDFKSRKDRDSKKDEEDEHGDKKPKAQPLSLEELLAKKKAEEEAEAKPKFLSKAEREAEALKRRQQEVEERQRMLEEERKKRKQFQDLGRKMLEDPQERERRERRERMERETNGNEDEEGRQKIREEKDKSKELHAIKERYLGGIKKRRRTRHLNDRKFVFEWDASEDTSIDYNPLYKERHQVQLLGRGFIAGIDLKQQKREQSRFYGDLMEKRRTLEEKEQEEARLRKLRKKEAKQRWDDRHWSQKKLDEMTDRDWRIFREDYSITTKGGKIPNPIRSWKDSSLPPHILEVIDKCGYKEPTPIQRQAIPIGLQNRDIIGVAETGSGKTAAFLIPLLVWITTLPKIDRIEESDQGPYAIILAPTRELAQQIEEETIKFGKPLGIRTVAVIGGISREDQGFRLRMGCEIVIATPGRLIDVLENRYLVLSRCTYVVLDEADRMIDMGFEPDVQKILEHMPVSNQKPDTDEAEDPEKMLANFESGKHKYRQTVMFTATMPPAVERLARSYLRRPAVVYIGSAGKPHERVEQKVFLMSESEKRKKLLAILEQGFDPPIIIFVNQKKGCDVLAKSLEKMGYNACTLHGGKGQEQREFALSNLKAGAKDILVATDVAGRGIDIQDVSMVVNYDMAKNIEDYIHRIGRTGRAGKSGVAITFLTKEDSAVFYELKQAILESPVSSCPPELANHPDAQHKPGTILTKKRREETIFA
UniProt O94760: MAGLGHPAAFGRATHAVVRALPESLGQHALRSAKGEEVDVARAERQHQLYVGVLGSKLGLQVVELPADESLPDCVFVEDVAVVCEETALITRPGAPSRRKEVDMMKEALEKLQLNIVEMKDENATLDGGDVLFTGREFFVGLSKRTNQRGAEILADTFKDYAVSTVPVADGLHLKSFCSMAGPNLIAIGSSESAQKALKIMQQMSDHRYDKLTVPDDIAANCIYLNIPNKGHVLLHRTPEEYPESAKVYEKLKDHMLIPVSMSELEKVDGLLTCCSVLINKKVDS
UniProt Q8WVC6: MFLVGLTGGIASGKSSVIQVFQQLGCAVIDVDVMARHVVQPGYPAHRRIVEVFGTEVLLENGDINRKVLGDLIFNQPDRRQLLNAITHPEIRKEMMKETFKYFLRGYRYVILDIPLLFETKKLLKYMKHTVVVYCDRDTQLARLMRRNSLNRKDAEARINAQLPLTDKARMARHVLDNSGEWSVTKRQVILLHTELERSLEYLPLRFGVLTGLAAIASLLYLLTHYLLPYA
UniProt Q96C86: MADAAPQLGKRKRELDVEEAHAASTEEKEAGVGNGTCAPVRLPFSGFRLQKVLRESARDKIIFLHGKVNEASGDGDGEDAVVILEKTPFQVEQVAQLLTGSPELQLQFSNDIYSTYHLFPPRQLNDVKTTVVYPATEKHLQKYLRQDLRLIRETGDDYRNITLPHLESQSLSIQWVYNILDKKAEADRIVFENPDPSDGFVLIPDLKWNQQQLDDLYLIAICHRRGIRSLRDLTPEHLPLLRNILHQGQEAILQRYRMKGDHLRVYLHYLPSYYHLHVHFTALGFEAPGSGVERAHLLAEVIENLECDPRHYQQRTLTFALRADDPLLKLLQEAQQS
UniProt Q8IV53: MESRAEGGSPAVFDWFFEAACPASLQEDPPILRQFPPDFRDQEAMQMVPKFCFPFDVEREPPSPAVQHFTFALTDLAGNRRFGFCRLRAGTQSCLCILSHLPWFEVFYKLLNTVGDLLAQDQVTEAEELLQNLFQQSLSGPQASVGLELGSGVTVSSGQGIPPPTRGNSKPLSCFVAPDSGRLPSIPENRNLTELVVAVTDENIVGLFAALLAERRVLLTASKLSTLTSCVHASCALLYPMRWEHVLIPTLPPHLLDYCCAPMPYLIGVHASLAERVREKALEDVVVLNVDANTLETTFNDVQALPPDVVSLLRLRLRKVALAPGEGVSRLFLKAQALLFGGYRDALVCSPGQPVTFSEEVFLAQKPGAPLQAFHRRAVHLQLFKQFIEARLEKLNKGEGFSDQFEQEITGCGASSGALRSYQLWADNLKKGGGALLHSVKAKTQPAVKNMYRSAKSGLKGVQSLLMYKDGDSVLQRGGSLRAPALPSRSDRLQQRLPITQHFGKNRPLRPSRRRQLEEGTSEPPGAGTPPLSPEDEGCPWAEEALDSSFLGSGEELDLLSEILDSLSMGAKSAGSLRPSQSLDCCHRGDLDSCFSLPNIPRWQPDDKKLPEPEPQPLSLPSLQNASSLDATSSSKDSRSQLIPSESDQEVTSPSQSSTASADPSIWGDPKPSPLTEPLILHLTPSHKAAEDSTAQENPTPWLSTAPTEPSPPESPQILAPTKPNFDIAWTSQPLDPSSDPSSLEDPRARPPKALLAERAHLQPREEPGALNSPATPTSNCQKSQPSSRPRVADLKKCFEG

[2] = compound: CCCS(=O)(=O)Nc1ccc(F)c(C(=O)c2c[nH]c3ncc(Cl)cc23)c1F
Summary of the method: as §1

[3] = compound: CCN(CCCOc1ccc2c(Nc3cc(CC(=O)Nc4cccc(F)c4)[nH]n3)ncnc2c1)CCOP(=O)(O)O [barasertib]
Summary of the method: as §1

[4] = compound: CC[C@@H]1C(=O)N(C)c2cnc(Nc3ccc(C(=O)NC4CCN(C)CC4)cc3OC)nc2N1C1CCCC1
Summary of the method: as §1

[5] = compound: CC[C@@H]1C(=O)N(C)c2cnc(Nc3ccc(C(=O)N[C@H]4CC[C@H](N5CCN(CC6CC6)CC5)CC4)cc3OC)nc2N1C(C)C [volasertib]
Summary of the method: as §1

[6] = compound: CCn1c(C(=O)N(C2CC2)C2CC2)cc2c3c(ncn3C)c(Nc3cc(C)n(C)n3)nc21
Summary of the method: as §1

[7] = compound: CCn1cc(-c2ccnc3[nH]c(-c4cccc(CN(C)C)c4)cc23)c(-c2ccc(NC(=O)N(C)C)cc2)n1
Summary of the method: as §1

[8] = compound: CN1CCC(CNc2ccc3ncc(-c4cccc(OC(F)(F)F)c4)n3n2)CC1
Summary of the method: as §1

[9] = compound: CN1CCN(CCOc2cc(OC3CCOCC3)c3c(Nc4c(Cl)ccc5c4OCO5)ncnc3c2)CC1 [saracatinib]
Summary of the method: as §1

[10] = compound: CN1CCN(c2nc(C3=C(c4c[nH]c5ccccc45)C(=O)NC3=O)c3ccccc3n2)CC1 [sotrastaurin]
Summary of the method: as §1

[11] = compound: CN1CC[C@H](c2c(O)cc(O)c3c(=O)cc(-c4ccccc4Cl)oc23)[C@H](O)C1 [alvocidib]
Summary of the method: as §1

[12] = compound: CN1CCc2c(c3ccccc3n2Cc2ccc(C(=O)NO)cc2)C1 [Tubastatin A]
Summary of the method: as §1

[13] = compound: CNC(=O)C1=CC=CC=C1NC2=NC(=NC=C2Cl)NC3=C(C=C(C=C3)N4CCOCC4)OC
Summary of the method: as §1

[14] = compound: CNC(=O)c1ccc(Nc2ncc(C(F)(F)F)c(NCc3nccnc3N(C)S(C)(=O)=O)n2)cc1 [defactinib]
Summary of the method: as §1

[15] = compound: CNc1nc(-c2ccc3c(N)n[nH]c3c2)cc(N2C[C@@H](C(=O)NC3CCCCC3)CC[C@H]2C)n1
Summary of the method: as §1

[16] = compound: COC(=O)N[C@@H](C)CNc1nccc(-c2cn(C(C)C)nc2-c2cc(Cl)cc(NS(C)(=O)=O)c2F)n1 [encorafenib]
Summary of the method: as §1

[17] = compound: COC(=O)[C@H](CCSC)NC(=O)C1=C(C=C(C=C1)NC[C@H](CS)N)C2=CC=CC=C2
Summary of the method: as §1

[18] = compound: COc1cc(Nc2ncc3c(n2)-c2ccc(Cl)cc2C(c2c(F)cccc2OC)=NC3)ccc1C(=O)O [alisertib]
Summary of the method: as §1

[19] = compound: COc1cc2nc(-c3cc(F)ccc3O)nc(N[C@@H]3CNC[C@H]3C(C)(C)O)c2cc1OC
Summary of the method: as §1

[20] = compound: COc1cc2ncnc(Nc3ccc(F)c(Cl)c3)c2cc1OCCCN1CCOCC1 [gefitinib]
Summary of the method: as §1

Measured: log2 fold change

DDX39A (UniProt O00148)
inactive: [1] 0.021 | [2] 0.021 | [3] 0.047 | [4] -0.049 | [5] -0.071 | [6] -0.028 | [7] -0.041 | [8] -0.027 | [9] -0.032 | [10] -0.002 | [11] -0.017 | [12] -0.171 | [13] -0.006 | [14] 0.003 | [15] -0.025 | [16] 0.001 | [17] 0.163 | [18] -0.026 | [19] 0.004 | [20] 0.009

DAPK2 isoform 2 (UniProt Q9UIK4)
inactive: [1] -0.363 | [2] -0.034 | [5] 0.025 | [6] -0.279 | [12] 0.195 | [13] 0.297 | [14] 0.098 | [19] 0.027

DAPK1 isoform 3 (UniProt P53355)
inactive: [1] 0.047 | [2] -0.203 | [5] -0.138 | [6] 0.022 | [7] 0.138 | [8] -0.04 | [9] 0.022 | [10] -0.039 | [11] 0.085 | [12] 0.001 | [13] 0.322 | [14] -0.109 | [15] 0.058 | [18] 0.051 | [19] 0.063 | [20] 0.139

DEPDC5 (UniProt O75140)
inactive: [1] -0.066 | [3] 0.016 | [7] -0.095 | [8] 0.038 | [11] 0.038 | [13] -0.083 | [14] 0.038 | [18] -0.165 | [20] 0.052

DESI1 (UniProt Q6ICB0)
inactive: [1] -0.013 | [3] 0.046 | [4] 0.001 | [7] 0.129 | [8] -0.075 | [9] 0 | [10] -0.026 | [11] 0.058 | [14] 0.047 | [15] -0.178 | [16] 0.037 | [17] -0.19 | [18] -0.013 | [20] 0.009

DDX23 (UniProt Q9BUQ8)
inactive: [1] 0.009 | [2] 0.01 | [3] 0.032 | [4] -0.012 | [5] -0.01 | [6] 0.029 | [7] 0.008 | [8] -0.051 | [9] 0.002 | [10] 0.004 | [11] -0.002 | [12] -0.035 | [13] 0.006 | [14] 0.004 | [15] -0.002 | [16] 0.012 | [17] -0.001 | [18] 0.015 | [19] -0.016 | [20] -0.041

DDAH1 (UniProt O94760)
inactive: [1] 0.054 | [2] 0.071 | [4] 0.04 | [5] 0.068 | [6] 0.061 | [7] -0.068 | [8] -0.051 | [10] -0.022 | [11] 0.015 | [12] 0.007 | [13] 0.037 | [14] 0.014 | [15] -0.002 | [16] 0 | [17] 0.009 | [19] 0.003
active: [9] -0.308

DCAKD (UniProt Q8WVC6)
inactive: [1] 0.06 | [6] -0.036 | [12] -0.007 | [14] 0.151 | [18] -0.063 | [20] 0.164

DCPS (UniProt Q96C86)
inactive: [1] 0.033 | [2] -0.007 | [3] 0.024 | [4] 0.089 | [5] 0 | [6] 0.01 | [7] -0.003 | [8] 0.023 | [9] 0.001 | [10] 0.008 | [11] 0.008 | [12] 0.026 | [13] 0.014 | [14] -0.015 | [15] -0.012 | [16] -0.065 | [17] 0.074 | [18] -0.031 | [19] 0.024 | [20] -0.026

DENND1C (UniProt Q8IV53)
inactive: [1] -0.008 | [3] -0.099 | [6] -0.072 | [9] 0 | [10] -0.048 | [12] 0.077 | [13] 0.04 | [14] 0 | [15] 0.326
